Measured values from patent US20210380547A1, “UREA DERIVATIVES FOR TREATING AND/OR PREVENTING CANCER” (CENTRE NATIONAL DE LA RECHERCHE SCIENTIFIQUE, priority 2018, published 2021).
For at least one compound, name, drawing or mass did not settle the structure.

Assays:
Type in all cases: cell-based, human
786-O = assay: XTT cell viability assay, 786-O; details: XTT assay (48 h); standard deviation of 10%; read-out: EC50 (μM) Kidney 786-O
Protocol: A, B: Naive (786-O, A), and sunitinib-resistant (786-R, B) 786-O cells, were treated with compound #1 or sunitinib (1 to 10 μM) for 48 hr. Cell viability was measured by XTT assays;
D, E: 786-O (D), 786-R (E), were treated with 2.5 μM compound #1 or 2.5 μM sunitinib for 24 h to 96 h. The cells metabolism was measured by XTT assay;
(§1) Fifty microliters of sodium 3′-[1-phenylaminocarbonyl)-3,4-tetrazolium]-bis(4-methoxy-6-nitro) benzene sulfonic acid hydrate (XTT) reagent was added to each well. The assay is based on the cleavage of the yellow tetrazolium salt XTT to form an orange formazan dye by metabolically active cells. The absorbance of the formazan product, reflecting cell viability, was measured at 490 nm. Each assay was performed in quadruplicate.
Compounds #1-#14 have been assayed as potential anti-proliferative agents against a panel of human breast head and neck, and kidney tumor cells and hematological malignancies, selected on the basis of their aggressiveness (e.g. incurable triple-negative breast cancer cells: MDA-MB-231; kidney ccRCC cells: RCC4, A498 and 786-O and 786R; head and neck cancer cells: CAL33, CAL33RR, CAL27, and CAL27RR; acute myeloid cell lines: OCI-AML2, OCI-AML3, MolM13, and MolM14; myelodysplastic cell line: SM1; and chronic myeloid cell line: CML). All these cell lines share as common denominator the expression of CXCR1 and CXCR2. […]

MDA-MB-231 = assay: XTT cell viability assay, MDA-MB-231; details: XTT assay (48 h); standard deviation of 10%; read-out: EC50 (μM) Breast MDA-MB-231
Protocol: as §1
(§2) Compounds #1-#14 have been assayed as potential anti-proliferative agents against a panel of human breast head and neck, and kidney tumor cells and hematological malignancies, selected on the basis of their aggressiveness (e.g. incurable triple-negative breast cancer cells: MDA-MB-231; kidney ccRCC cells: RCC4, A498 and 786-O and 786R; head and neck cancer cells: CAL33, CAL33RR, CAL27, and CAL27RR; acute myeloid cell lines: OCI-AML2, OCI-AML3, MolM13, and MolM14; myelodysplastic cell line: SM1; and chronic myeloid cell line: CML). All these cell lines share as common denominator the expression of CXCR1 and CXCR2. The EC50 values have been measured by a XTT colorimetric assay, and compared to those of SB-225002, used as a reference; the results are listed in Table 1.

RCC4 = assay: XTT cell viability assay, RCC4; details: XTT assay (48 h); standard deviation of 10%; read-out: EC50 (μM) Kidney RCC4
Protocol: as §1, §2

Measured: EC50

O=C(Nc1ccc([N+](=O)[O-])cc1O)Nc1ccccc1Br [SB-225002, reference compound]
100 µM: all assays above
